Laboratory results taken from the supplement of paper PMC10849652.
This is one part of the list. Residues, ends and D or L forms follow the SMILES beside them. *: point of attachment. Cbz = O=C(OCc1ccccc1)*

Chains of the proteins cited; added tags and fusions are not shown. Lines headed by an entry give the natural chain unless they say otherwise; changes in a name come on top.
UniProt Q86XS8: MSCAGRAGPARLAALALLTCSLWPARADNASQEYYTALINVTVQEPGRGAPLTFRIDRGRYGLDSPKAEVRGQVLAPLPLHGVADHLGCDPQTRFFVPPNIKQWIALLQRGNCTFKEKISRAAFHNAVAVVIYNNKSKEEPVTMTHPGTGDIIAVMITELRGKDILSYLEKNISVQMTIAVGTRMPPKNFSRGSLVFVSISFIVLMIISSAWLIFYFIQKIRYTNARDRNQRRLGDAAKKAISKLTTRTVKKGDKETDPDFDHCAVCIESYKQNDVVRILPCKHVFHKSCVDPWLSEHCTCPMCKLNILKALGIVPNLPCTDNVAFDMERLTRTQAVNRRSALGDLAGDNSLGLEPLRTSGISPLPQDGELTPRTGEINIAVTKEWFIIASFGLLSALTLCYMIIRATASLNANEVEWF
UniProt Q6NUM9: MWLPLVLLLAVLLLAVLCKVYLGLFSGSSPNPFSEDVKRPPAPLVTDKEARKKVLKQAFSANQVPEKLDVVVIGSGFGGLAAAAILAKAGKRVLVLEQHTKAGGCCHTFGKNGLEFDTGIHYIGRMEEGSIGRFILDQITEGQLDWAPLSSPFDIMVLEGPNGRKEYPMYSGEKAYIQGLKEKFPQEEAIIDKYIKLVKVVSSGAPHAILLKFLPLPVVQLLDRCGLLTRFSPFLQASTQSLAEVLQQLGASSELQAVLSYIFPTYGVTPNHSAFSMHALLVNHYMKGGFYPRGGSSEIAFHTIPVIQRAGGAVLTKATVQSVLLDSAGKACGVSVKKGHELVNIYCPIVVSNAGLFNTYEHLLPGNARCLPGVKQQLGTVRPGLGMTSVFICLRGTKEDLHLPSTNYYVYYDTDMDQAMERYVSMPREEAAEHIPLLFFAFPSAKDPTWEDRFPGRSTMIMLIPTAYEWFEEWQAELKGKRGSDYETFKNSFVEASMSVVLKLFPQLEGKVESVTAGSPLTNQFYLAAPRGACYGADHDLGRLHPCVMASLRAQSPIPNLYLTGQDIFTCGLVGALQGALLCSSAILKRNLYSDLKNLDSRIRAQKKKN
UniProt Q96D15: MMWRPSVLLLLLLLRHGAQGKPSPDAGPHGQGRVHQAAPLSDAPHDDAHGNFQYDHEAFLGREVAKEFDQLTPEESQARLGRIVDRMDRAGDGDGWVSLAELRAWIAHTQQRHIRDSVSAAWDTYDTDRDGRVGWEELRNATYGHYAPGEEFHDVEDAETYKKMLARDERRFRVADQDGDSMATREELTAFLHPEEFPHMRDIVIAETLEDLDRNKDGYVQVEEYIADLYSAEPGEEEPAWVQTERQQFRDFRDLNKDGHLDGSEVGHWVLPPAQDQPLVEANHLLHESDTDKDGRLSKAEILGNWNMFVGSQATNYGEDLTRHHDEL
UniProt Q99496: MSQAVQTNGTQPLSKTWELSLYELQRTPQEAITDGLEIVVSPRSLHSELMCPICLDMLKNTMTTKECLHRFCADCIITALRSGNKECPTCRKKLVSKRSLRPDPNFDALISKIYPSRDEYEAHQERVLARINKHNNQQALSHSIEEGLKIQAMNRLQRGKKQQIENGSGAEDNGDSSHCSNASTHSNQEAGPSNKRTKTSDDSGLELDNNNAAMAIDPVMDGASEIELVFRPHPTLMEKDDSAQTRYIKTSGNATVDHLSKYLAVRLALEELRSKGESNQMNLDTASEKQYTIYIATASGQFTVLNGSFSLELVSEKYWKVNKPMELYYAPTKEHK
UniProt P82980: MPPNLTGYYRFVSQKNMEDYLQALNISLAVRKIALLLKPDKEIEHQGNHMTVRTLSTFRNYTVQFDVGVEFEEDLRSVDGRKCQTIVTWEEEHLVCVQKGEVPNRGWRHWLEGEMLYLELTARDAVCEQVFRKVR
UniProt Q8WVD5: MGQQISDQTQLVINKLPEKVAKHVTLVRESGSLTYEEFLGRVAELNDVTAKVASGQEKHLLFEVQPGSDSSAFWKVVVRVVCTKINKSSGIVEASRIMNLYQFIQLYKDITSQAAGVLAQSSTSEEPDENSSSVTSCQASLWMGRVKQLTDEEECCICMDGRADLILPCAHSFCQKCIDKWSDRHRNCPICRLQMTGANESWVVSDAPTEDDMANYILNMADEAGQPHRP
UniProt Q8TEB9: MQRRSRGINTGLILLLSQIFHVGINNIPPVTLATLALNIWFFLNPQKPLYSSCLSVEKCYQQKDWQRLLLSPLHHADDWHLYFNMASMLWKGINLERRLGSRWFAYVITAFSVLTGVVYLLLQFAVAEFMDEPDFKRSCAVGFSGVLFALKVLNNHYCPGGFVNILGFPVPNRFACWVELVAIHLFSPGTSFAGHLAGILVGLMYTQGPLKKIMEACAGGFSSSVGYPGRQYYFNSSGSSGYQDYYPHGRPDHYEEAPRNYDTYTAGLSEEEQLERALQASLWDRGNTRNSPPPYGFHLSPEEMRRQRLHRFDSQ
UniProt O00584, whole entry, looked up: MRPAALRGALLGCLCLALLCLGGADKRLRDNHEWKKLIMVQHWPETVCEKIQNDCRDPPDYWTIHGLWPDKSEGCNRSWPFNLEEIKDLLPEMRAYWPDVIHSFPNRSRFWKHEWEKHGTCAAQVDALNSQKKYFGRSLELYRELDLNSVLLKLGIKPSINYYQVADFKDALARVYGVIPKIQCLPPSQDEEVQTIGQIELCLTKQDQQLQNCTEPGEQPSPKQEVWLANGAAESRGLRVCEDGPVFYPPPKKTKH
UniProt Q9H6H4: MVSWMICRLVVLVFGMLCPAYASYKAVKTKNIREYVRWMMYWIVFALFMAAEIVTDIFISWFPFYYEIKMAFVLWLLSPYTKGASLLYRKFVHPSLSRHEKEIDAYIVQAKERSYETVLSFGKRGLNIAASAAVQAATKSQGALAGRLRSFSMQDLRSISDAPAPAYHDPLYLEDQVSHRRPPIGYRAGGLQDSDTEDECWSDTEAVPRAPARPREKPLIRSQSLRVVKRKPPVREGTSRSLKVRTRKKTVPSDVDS
UniProt O43567: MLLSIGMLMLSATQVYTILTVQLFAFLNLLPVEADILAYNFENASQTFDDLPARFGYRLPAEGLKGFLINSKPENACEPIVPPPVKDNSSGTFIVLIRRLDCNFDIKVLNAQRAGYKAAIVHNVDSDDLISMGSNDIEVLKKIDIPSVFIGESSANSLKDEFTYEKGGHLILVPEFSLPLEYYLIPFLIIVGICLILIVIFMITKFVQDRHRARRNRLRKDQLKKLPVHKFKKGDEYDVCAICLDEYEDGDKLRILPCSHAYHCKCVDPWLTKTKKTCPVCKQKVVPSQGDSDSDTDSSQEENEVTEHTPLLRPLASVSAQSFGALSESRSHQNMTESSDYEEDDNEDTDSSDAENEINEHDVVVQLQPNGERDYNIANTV
UniProt Q04864: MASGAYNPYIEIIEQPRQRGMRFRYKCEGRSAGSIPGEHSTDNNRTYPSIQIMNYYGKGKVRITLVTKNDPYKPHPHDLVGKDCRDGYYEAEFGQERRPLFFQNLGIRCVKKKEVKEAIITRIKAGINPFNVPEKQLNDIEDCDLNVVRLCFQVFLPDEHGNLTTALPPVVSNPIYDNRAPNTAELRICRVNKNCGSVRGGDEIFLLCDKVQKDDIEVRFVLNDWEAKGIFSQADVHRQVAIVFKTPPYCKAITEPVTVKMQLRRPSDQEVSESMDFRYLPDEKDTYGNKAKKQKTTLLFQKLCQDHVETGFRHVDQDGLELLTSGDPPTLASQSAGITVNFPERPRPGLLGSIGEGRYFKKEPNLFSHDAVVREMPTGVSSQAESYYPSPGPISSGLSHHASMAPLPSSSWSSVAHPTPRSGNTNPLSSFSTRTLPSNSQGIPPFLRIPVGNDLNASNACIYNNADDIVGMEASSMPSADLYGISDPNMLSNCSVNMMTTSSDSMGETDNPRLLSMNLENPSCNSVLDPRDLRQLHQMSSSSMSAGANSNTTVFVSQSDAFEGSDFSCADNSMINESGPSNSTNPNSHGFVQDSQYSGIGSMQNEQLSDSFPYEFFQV
UniProt Q8WU17: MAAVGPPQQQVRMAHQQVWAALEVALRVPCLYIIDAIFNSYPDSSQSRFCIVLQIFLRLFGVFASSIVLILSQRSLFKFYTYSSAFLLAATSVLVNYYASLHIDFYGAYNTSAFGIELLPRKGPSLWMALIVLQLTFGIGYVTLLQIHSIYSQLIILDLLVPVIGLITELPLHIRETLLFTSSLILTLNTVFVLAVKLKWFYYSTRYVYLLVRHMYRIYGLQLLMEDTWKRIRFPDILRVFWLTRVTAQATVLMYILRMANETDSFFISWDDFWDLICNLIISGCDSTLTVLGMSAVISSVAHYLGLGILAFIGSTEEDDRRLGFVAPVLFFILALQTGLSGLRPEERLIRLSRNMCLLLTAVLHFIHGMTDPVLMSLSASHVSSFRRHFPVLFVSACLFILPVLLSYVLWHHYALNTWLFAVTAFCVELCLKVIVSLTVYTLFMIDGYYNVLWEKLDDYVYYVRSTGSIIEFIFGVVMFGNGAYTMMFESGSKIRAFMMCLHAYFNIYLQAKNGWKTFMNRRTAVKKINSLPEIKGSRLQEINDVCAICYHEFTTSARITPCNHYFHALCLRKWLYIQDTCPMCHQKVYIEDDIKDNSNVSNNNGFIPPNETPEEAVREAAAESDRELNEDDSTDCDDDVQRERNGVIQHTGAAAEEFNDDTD
UniProt Q8NBN7: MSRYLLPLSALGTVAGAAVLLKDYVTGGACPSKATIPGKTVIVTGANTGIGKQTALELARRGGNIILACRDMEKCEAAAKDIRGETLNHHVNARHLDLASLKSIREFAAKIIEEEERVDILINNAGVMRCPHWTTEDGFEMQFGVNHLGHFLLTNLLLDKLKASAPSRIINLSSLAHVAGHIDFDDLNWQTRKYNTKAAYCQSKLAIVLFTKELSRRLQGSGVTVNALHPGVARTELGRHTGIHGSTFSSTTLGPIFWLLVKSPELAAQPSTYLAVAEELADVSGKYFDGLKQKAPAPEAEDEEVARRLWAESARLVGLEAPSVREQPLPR
UniProt Q5TC82: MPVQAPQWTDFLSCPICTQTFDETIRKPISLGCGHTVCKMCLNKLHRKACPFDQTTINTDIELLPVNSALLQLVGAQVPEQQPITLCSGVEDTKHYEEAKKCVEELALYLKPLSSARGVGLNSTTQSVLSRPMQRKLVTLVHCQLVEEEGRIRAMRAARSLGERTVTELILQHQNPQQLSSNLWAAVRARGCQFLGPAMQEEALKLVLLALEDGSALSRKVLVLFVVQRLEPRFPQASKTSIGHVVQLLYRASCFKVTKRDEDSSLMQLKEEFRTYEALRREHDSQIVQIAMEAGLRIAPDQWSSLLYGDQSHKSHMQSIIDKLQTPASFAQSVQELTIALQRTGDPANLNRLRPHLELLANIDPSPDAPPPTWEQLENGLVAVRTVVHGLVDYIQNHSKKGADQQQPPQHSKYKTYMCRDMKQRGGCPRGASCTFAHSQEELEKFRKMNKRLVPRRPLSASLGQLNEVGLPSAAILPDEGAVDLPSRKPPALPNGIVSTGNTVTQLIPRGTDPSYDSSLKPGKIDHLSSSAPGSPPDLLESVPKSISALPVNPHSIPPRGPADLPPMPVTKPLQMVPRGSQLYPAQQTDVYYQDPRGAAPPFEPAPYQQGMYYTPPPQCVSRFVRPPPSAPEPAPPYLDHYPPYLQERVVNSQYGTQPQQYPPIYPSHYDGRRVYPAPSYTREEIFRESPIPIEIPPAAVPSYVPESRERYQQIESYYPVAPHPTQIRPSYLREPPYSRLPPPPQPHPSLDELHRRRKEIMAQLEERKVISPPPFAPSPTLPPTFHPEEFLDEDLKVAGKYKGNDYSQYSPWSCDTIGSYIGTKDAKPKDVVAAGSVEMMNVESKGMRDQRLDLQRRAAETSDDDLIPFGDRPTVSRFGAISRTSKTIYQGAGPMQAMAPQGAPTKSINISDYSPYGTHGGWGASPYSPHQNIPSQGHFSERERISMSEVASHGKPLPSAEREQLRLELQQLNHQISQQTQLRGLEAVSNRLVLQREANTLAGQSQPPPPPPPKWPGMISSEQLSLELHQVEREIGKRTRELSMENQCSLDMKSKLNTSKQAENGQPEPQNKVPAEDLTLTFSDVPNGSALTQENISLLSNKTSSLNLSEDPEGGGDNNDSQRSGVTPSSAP
UniProt P40938, whole entry, looked up: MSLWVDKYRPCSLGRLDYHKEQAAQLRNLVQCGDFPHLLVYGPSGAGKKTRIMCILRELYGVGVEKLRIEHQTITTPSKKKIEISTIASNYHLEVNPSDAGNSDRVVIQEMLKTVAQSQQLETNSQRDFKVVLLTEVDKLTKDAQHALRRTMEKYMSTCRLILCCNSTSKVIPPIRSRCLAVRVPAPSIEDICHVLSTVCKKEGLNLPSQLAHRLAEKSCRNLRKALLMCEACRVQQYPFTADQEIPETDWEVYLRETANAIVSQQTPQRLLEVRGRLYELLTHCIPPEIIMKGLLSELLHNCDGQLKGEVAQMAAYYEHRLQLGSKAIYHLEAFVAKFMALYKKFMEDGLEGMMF
UniProt P61586, whole entry, looked up: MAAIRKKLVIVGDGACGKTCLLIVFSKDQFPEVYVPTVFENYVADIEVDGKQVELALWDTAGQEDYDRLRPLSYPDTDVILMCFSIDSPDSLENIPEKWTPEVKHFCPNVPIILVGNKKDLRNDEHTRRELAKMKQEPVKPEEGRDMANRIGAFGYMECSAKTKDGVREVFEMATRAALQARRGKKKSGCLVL

What was measured:
Assay in all cases: log2 fold change, soluble protein after heating vs DMSO (PISA); higher = thermal stabilisation; K562 cells, 10 uM, 30 min; active = over 0.2 and 3.5 SD of the protein, either way, in both replicates (recomputed)
IRAK-1-4 Inhibitor I = compound: C1COCCN1CCN2C3=CC=CC=C3N=C2NC(=O)C4=CC(=CC=C4)[N+](=O)[O-] [IRAK-1-4 Inhibitor I]
Summary of the method: (§1)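 K562 cells at 2×10^6 cells/mL were treated with 10 μM compound for 30 min. Aliquots were heated for 3 min across 48°C-58°C, pooled, and extracted in PBS with 0.5% NP-40 at 4°C; soluble protein was the supernatant after 21,000xg for 90 min. Soluble protein was quantified by TMTpro 16plex LC-MS/MS with channel sums equalised, and reported as log2 fold change in thermal stability against DMSO controls, with values from duplicates.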

ibrutinib = compound: C=CC(=O)N1CCC[C@@H](n2nc(-c3ccc(Oc4ccccc4)cc3)c3c(N)ncnc32)C1 [ibrutinib]
Summary of the method: as §1

[1] = compound: CC(C)C1=C2N=C(C=C(N2N=C1)NCC3=CC=CC=C3)NCCCCCCN
Summary of the method: as §1

pinometostat = compound: CC(C)N(C[C@H]1O[C@@H](n2cnc3c(N)ncnc32)[C@H](O)[C@@H]1O)[C@H]1C[C@@H](CCc2nc3cc(C(C)(C)C)ccc3[nH]2)C1 [pinometostat]
Summary of the method: as §1

[2] = compound: CC1=CC=C(C=C1)SC2=C3C=C(SC3=CN=C2)C(=O)N
Summary of the method: as §1

[3] = compound: CC1=NC(=CC=C1)C2=C(N=C(N2)C(C)(C)C)C3=CC4=NC=CN=C4C=C3
Summary of the method: as §1

[4] = compound: CCCS(=O)(=O)Nc1ccc(F)c(C(=O)c2c[nH]c3ncc(Cl)cc23)c1F
Summary of the method: as §1

[5] = compound: CCCc1cc(C)[nH]c(=O)c1CNC(=O)c1cc(-c2ccnc(N3CCN(C)CC3)c2)cc2c1cnn2C(C)C
Summary of the method: as §1

givinostat = compound: CCN(CC)Cc1ccc2cc(COC(=O)Nc3ccc(C(=O)NO)cc3)ccc2c1 [givinostat]
Summary of the method: as §1

barasertib = compound: CCN(CCCOc1ccc2c(Nc3cc(CC(=O)Nc4cccc(F)c4)[nH]n3)ncnc2c1)CCOP(=O)(O)O [barasertib]
Summary of the method: as §1

[6] = compound: CC(=O)c1cnc2ccc(-c3cc(Cl)c(O)c(Cl)c3)nc2c1N[C@H]1CC[C@H](CN(C)C)CC1
Summary of the method: as §1

ralimetinib = compound: CC(C)(C)Cn1c(N)nc2ccc(-c3[nH]c(C(C)(C)C)nc3-c3ccc(F)cc3)nc21 [ralimetinib]
Summary of the method: as §1

[7] = compound: CC(C)(O)CC(=O)NCCn1ccc2ncnc(Nc3ccc(Oc4cccc(C(F)(F)F)c4)c(Cl)c3)c21
Summary of the method: as §1

[8] = compound: CC(C)C[C@@H](C=O)NC(=O)[C@H](CC(C)C)NC(=O)[C@H](CC(C)C)NC(=O)OCc1ccccc1
Summary of the method: as §1

[9] = compound: CC1=C(C2=C(C=C1)C(=O)C3=CC=CC=C3N2CCCN)C
Summary of the method: as §1

[10] = compound: CC1=C(C=C(C=C1)NC(=O)C2=CC(=CC=C2)C(C)(C)C#N)NC3=CC4=C(C=C3)N=CN(C4=O)C
Summary of the method: as §1

[11] = compound: CC1=C(C=C(C=C1)NC(=O)C2=CC(=CC=C2)N(C)C)NC(=O)C3=CC=C(C=C3)O
Summary of the method: as §1

Nexturastat A = compound: CCCCN(Cc1ccc(C(=O)NO)cc1)C(=O)Nc1ccccc1 [Nexturastat A]
Summary of the method: as §1

vemurafenib = compound: CCCS(=O)(=O)Nc1ccc(F)c(C(=O)c2c[nH]c3ncc(-c4ccc(Cl)cc4)cc23)c1F [vemurafenib]
Summary of the method: as §1

[12] = compound: CC1=C(C(CC(=O)N1)C2=CC=C(C=C2)C(F)(F)F)C(=O)NC3=C(C=C4C(=C3)C=NN4)F
Summary of the method: as §1

Measured: log2 fold change

RNF130 (UniProt Q86XS8)
inactive: IRAK-1-4 Inhibitor I 0.001 | ibrutinib -0.24 | [1] 0.04 | pinometostat -0.041 | [2] 0 | [3] -0.406 | [4] -0.105 | [5] 0.19 | givinostat -0.046 | barasertib 0.015

RETSAT (UniProt Q6NUM9)
inactive: IRAK-1-4 Inhibitor I -0.09 | ibrutinib 0.042 | [6] 0.01 | ralimetinib 0.012 | [7] 0.178 | [1] -0.048 | [8] -0.007 | pinometostat -0.012 | [9] 0.059 | [10] 0.014 | [11] 0.025 | [2] 0.088 | [3] -0.037 | Nexturastat A -0.003 | vemurafenib -0.03 | [4] -0.077 | [5] -0.091 | givinostat 0.31 | barasertib 0.009

RBM48 isoform 2 (UniProt Q5RL73)
inactive: IRAK-1-4 Inhibitor I 0.15 | ibrutinib 0.051 | [6] -0.018 | ralimetinib 0.004 | [7] 0.004 | [1] 0.156 | [8] -0.301 | pinometostat 0.068 | [9] -0.151 | [11] -0.13 | [2] -0.009 | [3] -0.007 | Nexturastat A 0.04 | [4] -0.011 | givinostat -0.03 | barasertib -0.069
active: [10] -0.708

RCOR3 isoform 3 (UniProt Q9P2K3)
inactive: IRAK-1-4 Inhibitor I 0.009 | ibrutinib -0.053 | [6] -0.188 | ralimetinib 0.017 | [1] -0.048 | [8] 0.062 | pinometostat -0.038 | [9] -0.035 | [10] -0.12 | [11] -0.046 | [2] 0.051 | [3] 0.012 | vemurafenib 0.025 | [4] 0.031 | [5] -0.022 | givinostat 0.075 | barasertib 0.098

RCN3 (UniProt Q96D15)
inactive: IRAK-1-4 Inhibitor I 0.131 | ibrutinib 0.075 | [6] -0.048 | ralimetinib -0.013 | [7] 0.013 | [1] 0.047 | [8] 0.026 | pinometostat -0.035 | [9] -0.031 | [10] -0.055 | [11] 0.029 | [2] -0.028 | [3] -0.073 | Nexturastat A 0.077 | vemurafenib -0.003 | [4] -0.053 | [5] -0.145 | givinostat -0.023 | barasertib -0.011

RNF2 (UniProt Q99496)
inactive: IRAK-1-4 Inhibitor I -0.024 | ibrutinib 0.086 | [6] 0.001 | [7] -0.065 | [1] 0.091 | pinometostat 0.066 | [9] -0.058 | [10] 0.155 | [2] 0.051 | [3] 0.022 | Nexturastat A 0.024 | vemurafenib -0.066 | [4] 0.061 | [5] 0.07 | givinostat -0.04 | barasertib -0.002

RBP5 (UniProt P82980)
inactive: IRAK-1-4 Inhibitor I -0.105 | ibrutinib 0.155 | [6] -0.008 | [7] -0.032 | [1] -0.019 | pinometostat -0.062 | [12] 0.028 | [9] -0.094 | [10] -0.068 | [2] -0.063 | [3] 0.02 | Nexturastat A 0.164 | [4] -0.01 | [5] -0.09 | givinostat -0.104 | barasertib 0.047

RNF141 (UniProt Q8WVD5)
inactive: IRAK-1-4 Inhibitor I 0.016 | ibrutinib -0.042 | ralimetinib 0.018 | [1] 0.092 | [8] 0.002 | pinometostat -0.073 | [12] 0.076 | [9] -0.066 | [10] -0.021 | [11] -0.042 | [2] 0.004 | [3] 0.118 | vemurafenib -0.005 | [4] 0.079 | givinostat -0.088 | barasertib -0.073

RHBDD1 (UniProt Q8TEB9)
inactive: IRAK-1-4 Inhibitor I 0.113 | ibrutinib 0.013 | ralimetinib 0.113 | [7] -0.085 | [1] -0.052 | [8] -0.077 | pinometostat 0 | [12] -0.099 | [10] 0.088 | [11] 0.064 | [2] 0.043 | [3] 0.06 | Nexturastat A 0.021 | vemurafenib -0.058 | [4] 0.068 | [5] 0.231 | givinostat -0.074 | barasertib -0.031

RNASET2 (UniProt O00584)
inactive: IRAK-1-4 Inhibitor I 0.028 | ibrutinib 0.042 | [6] 0 | ralimetinib -0.082 | [7] 0.029 | [1] -0.206 | [8] -0.004 | pinometostat -0.014 | [9] -0.061 | [10] 0.007 | [11] 0.026 | [2] 0.033 | [3] 0.027 | Nexturastat A -0.079 | vemurafenib -0.019 | [4] 0.004 | [5] 0.001 | givinostat -0.006 | barasertib -0.013

REEP4 (UniProt Q9H6H4)
inactive: IRAK-1-4 Inhibitor I 0.005 | ibrutinib -0.003 | [6] -0.198 | ralimetinib 0.164 | [7] -0.049 | [1] -0.157 | [8] 0.041 | pinometostat 0.13 | [9] 0.036 | [10] 0.08 | [11] 0.001 | [2] 0.047 | [3] -0.043 | Nexturastat A 0.107 | vemurafenib 0.008 | [4] 0.126 | [5] 0.019 | givinostat 0.011 | barasertib 0.002

RNF13 (UniProt O43567)
inactive: IRAK-1-4 Inhibitor I 0.098 | ibrutinib -0.059 | [6] 0.005 | [7] 0.08 | pinometostat 0.051 | [9] 0.093 | [10] -0.06 | [3] -0.042 | Nexturastat A -0.036 | vemurafenib -0.023 | barasertib -0.006

REL (UniProt Q04864)
inactive: IRAK-1-4 Inhibitor I -0.046 | ibrutinib -0.095 | [6] -0.017 | ralimetinib 0.037 | [7] -0.093 | [1] -0.074 | [8] 0.062 | pinometostat 0.089 | [9] 0.005 | [10] 0.001 | [11] -0.044 | [2] 0.033 | [3] -0.004 | Nexturastat A -0.053 | vemurafenib 0.044 | [4] 0.077 | [5] -0.022 | givinostat 0.101 | barasertib 0.079

RNF139 (UniProt Q8WU17)
inactive: IRAK-1-4 Inhibitor I 0.013 | ibrutinib -0.073 | ralimetinib 0.015 | [7] 0.024 | [1] -0.026 | [8] -0.035 | pinometostat -0.027 | [12] 0.003 | [9] 0.056 | [10] 0.093 | [11] -0.007 | [3] -0.046 | Nexturastat A -0.031 | vemurafenib -0.01 | [5] -0.107 | givinostat 0.05 | barasertib 0.036

Quoted at random: 2 entries already listed
RNF2 (UniProt Q99496)
inactive: IRAK-1-4 Inhibitor I -0.024 | ibrutinib 0.086 | [6] 0.001 | [7] -0.065 | [1] 0.091 | pinometostat 0.066 | [9] -0.058 | [10] 0.155 | [2] 0.051 | [3] 0.022 | Nexturastat A 0.024 | vemurafenib -0.066 | [4] 0.061 | [5] 0.07 | givinostat -0.04 | barasertib -0.002

RCN3 (UniProt Q96D15)
inactive: IRAK-1-4 Inhibitor I 0.131 | ibrutinib 0.075 | [6] -0.048 | ralimetinib -0.013 | [7] 0.013 | [1] 0.047 | [8] 0.026 | pinometostat -0.035 | [9] -0.031 | [10] -0.055 | [11] 0.029 | [2] -0.028 | [3] -0.073 | Nexturastat A 0.077 | vemurafenib -0.003 | [4] -0.053 | [5] -0.145 | givinostat -0.023 | barasertib -0.011

Later entries:

RDH13 (UniProt Q8NBN7)
inactive: IRAK-1-4 Inhibitor I 0.012 | ibrutinib 0.03 | [6] -0.054 | ralimetinib -0.031 | [7] -0.061 | [1] -0.184 | [8] -0.029 | pinometostat -0.057 | [9] 0.111 | [10] 0.011 | [11] -0.082 | [2] 0.045 | [3] 0.078 | Nexturastat A -0.046 | vemurafenib 0.044 | [4] 0.019 | [5] -0.01 | givinostat -0.002 | barasertib 0.033

RC3H1 (UniProt Q5TC82)
inactive: IRAK-1-4 Inhibitor I 0.051 | [6] -0.41 | [7] -0.042 | [1] 0.013 | pinometostat 0.059 | [9] -0.082 | [10] 0.065 | [2] -0.07 | [3] -0.062 | Nexturastat A 0.174 | vemurafenib 0.074 | [4] -0.018 | [5] -0.2 | givinostat -0.013

RBM4 (UniProt Q9BWF3)
inactive: IRAK-1-4 Inhibitor I -0.038 | ibrutinib -0.023 | [6] -0.083 | ralimetinib 0.099 | [7] 0.019 | [1] -0.136 | [8] 0.074 | pinometostat 0.076 | [9] -0.027 | [10] -0.041 | [11] -0.033 | [2] -0.061 | [3] -0.034 | Nexturastat A 0.081 | vemurafenib 0.01 | [4] 0.052 | [5] 0.003 | givinostat 0.071 | barasertib 0.018

RFC3 (UniProt P40938)
inactive: IRAK-1-4 Inhibitor I 0.003 | ibrutinib 0.025 | [6] -0.101 | ralimetinib 0.021 | [7] -0.087 | [1] -0.012 | [8] -0.047 | pinometostat -0.057 | [9] 0.09 | [10] -0.003 | [11] -0.031 | [2] 0.05 | [3] 0.058 | Nexturastat A -0.032 | vemurafenib 0.048 | [4] 0.101 | [5] 0 | givinostat -0.007 | barasertib -0.011

RHOA (UniProt P61586)
inactive: IRAK-1-4 Inhibitor I 0.108 | ibrutinib -0.015 | [6] 0.047 | ralimetinib 0.251 | [7] -0.034 | [1] 0.063 | [8] -0.07 | pinometostat -0.023 | [9] -0.007 | [10] 0.015 | [11] -0.073 | [2] 0.047 | [3] 0.061 | Nexturastat A 0.039 | vemurafenib -0.042 | [4] 0.074 | [5] 0.145 | givinostat -0.032 | barasertib 0.026
